Results: US9951104B2, “Peptides and methods of using same” (Serpin Pharma, LLC, priority 2012, dated 2018)
“Also recorded” adds a separate entry of the source. At least one peptide structure holds a part that was inferred or is arguable (an end, a ring closure or a residue). For part of these data: For at least one compound, name, drawing or mass did not settle the structure. Some results were stated once for a whole list of compounds, not compound by compound. Blank lines part the entries; values can stand above or below the compound they belong to.

By UniProt entry, the sequences of proteins in these tests, tags left out. Residues count along the entry.
UniProt Q9QUN7, 25-784: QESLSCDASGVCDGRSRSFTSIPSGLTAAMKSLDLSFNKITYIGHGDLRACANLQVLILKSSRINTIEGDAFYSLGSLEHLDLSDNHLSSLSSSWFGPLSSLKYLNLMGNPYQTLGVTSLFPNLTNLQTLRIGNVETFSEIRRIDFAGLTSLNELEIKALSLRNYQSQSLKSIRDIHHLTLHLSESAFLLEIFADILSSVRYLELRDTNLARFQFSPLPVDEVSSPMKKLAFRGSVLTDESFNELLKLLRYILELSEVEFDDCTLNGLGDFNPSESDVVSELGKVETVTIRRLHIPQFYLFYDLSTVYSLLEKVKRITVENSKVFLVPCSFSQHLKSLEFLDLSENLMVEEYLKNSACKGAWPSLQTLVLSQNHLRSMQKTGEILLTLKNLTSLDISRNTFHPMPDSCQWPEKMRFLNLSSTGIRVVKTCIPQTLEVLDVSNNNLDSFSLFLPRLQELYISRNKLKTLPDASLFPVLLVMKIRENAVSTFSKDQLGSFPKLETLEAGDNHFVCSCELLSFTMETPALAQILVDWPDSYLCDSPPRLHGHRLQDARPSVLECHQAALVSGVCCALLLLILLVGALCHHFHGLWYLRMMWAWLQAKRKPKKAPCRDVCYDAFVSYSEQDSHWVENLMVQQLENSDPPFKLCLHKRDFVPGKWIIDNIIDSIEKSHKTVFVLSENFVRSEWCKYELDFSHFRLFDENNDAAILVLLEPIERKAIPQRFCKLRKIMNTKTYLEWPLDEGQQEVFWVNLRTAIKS
UniProt O00206, 24-839, species assumed: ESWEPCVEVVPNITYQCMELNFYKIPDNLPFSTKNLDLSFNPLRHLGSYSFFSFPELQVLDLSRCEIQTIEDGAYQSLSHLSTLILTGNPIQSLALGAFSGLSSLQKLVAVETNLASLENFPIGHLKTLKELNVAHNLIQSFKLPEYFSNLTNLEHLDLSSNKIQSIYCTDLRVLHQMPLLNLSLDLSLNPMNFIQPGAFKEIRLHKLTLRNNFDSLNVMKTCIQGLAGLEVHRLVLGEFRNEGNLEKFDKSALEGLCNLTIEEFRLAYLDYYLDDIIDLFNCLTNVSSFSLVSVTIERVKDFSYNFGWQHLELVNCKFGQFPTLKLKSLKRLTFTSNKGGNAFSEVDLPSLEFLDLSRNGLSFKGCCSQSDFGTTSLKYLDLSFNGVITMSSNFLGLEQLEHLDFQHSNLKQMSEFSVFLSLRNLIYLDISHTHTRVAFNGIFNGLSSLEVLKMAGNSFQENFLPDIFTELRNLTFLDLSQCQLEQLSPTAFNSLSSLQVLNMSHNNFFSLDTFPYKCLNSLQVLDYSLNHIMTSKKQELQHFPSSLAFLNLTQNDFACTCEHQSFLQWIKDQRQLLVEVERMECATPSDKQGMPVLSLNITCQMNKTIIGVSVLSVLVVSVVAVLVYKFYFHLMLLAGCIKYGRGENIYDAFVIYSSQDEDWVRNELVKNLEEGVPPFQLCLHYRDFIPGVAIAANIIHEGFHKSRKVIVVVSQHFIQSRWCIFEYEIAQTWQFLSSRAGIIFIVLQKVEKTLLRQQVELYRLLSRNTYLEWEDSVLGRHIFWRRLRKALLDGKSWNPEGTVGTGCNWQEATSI

How the values were obtained:
db/db mice = assay: db/db mouse model of type II diabetes; assay type: in vivo; details: for Non-fasted blood glucose: IP biweekly for 5 weeks, 0.6 mg/kg SP16 or Rosiglitazone
CAIA Balb/c mice = assay: Collagen antibody induced arthritis (CAIA) model of rheumatoid arthritis; assay type: in vivo, mouse
TLR-2 = biological target: T1, TLR-2 (Mus musculus, UniProt Q9QUN7); assay: TLR-2 indicator cell line assay (HEK-Blue mTLR2, Invivogen), secreted alkaline phosphatase; assay type: cell-based; details: for impact on TLR-2 signaling (alanine scan): 20 μg/ml peptide for 24 hours (FIGS. 12, 13)
T1 construct: host or cells: HEK-Blue mTLR2 (engineered HEK reporter line secreting alkaline phosphatase)
Description: (§1) Graph summarizing representative data from assays with an engineered TLR-2 indicator cell line (HEK-Blue™ mTLR2, Invivogen). Cells were incubated with the indicated concentrations of peptide for 24 hours. Upon TLR2 activation, the cells secrete alkaline phosphatase which can be assayed. The assay was done in triplicate and averages with standard deviations are plotted.
Graph summarizing data from an experiment where an engineered TLR-2 indicator cell line (HEK-Blue™ mTLR2, Invivogen) was used to test the impact of substituting amino acid residues of the SP16 peptide with alanine (“alanine scan”). Cells were incubated with 20 μg/ml of the indicated peptides for 24 hours. Upon TLR2 activation, the cells secrete alkaline phosphatase which can be assayed. The assay was done in triplicate and averages are plotted. Peptide sequences are shown in the following figure. *p<0.05, compared with scrambled control (SP34).
We also performed a peptide optimization assay using an alanine scan with the TLR-2 assay. Data was obtained using an experiment with an engineered TLR-2 indicator cell line (HEK-BLUE™ mTLR2, Invivogen). Cells were incubated with the 20 μg/ml of the indicated peptides for 24 hours. Upon TLR2 activation, the cells secrete alkaline phosphatase which can be assayed. The assay was done in triplicate and averages are plotted. Peptide SP34 is a scrambled peptide control (Yellow), and PAM (Pam3CSK4; Red) is a positive control. See, e.g., FIG. 12.
as §1, with “summarizing” for “summarizing representative”, “an experiment” for “assays”, “(HEK-BLUE™” for “(HEK-Blue™”

TLR-4 = biological target: T2, TLR-4 (Homo sapiens, UniProt O00206); assay: TLR-4 signaling in engineered cell lines; assay type: cell-based
T2 construct: expressed in transfected cells

[1] = test system: primary human synoviocytes; assay: IL1b-stimulated MMP1 secretion by primary human synoviocytes; assay type: cell-based; details: 10 uM peptide; 20 ng/ml IL1b; 48 hours; vs scrambled control peptides
THP1 cells = assay: LPS-induced NFκB activation in THP1 cells; assay type: cell-based; details: in vitro
111 human receptors = assay: GenSEP Explorer panel, human receptor panning
Source text: In addition, we also performed a profile using human receptor panning. The GenSEP Explorer panel contains 111 in vitro assay targets carefully selected to assess drug/chemical biological activities. Assay categories include GPCRs, Voltage-Gated Ion Channels, Ligand-Gated Ion Channels, Neurotransmitter transporters, Nuclear Receptors and Steroids as well as a diverse set of biochemical targets including Phosphodiesterases, Kinases and other relevant enzymes.

Compound: CN(CCOc1ccc(CC2SC(=O)NC2=O)cc1)c1ccccn1 (stereo not drawn) [Rosiglitazone, reference compound]
Non-fasted blood glucose (db/db mice; five-week old db/db mice, vs vehicle, 0.6 mg/kg): better values than the SP16 group; also recorded: significantly lowered
glucose tolerance (db/db mice; glucose tolerance test during the last week of the study): better values than the SP16 group

Compound: CC[C@H](C)[C@H](NC(=O)[C@H](CCSC)NC(=O)[C@H](CC(C)C)NC(=O)[C@H](Cc1ccccc1)NC(=O)[C@@H](NC(=O)[C@H](Cc1ccccc1)NC(=O)[C@@H]1CCCN1C(=O)[C@H](CCCCN)NC(=O)[C@H](CC(N)=O)NC(=O)[C@H](Cc1ccccc1)NC(=O)[C@H](CCCCN)NC(=O)[C@@H](N)C(C)C)C(C)C)C(=O)N[C@@H](CCC(=O)O)C(=O)N[C@@H](CCC(N)=O)C(=O)N[C@@H](CC(N)=O)C(=O)N[C@H](C(=O)N[C@@H](CCCCN)C(=O)O)[C@@H](C)O [SP16]
reduction of inflammation compared to vehicle control (CAIA Balb/c mice; 12 μg once every 3 days, Day 7): ~50%
cumulative swelling scores for all paws at the peak of disease (Day 7) (CAIA Balb/c mice; daily SP16 injection of 12 μg/day, groups of 5 Balb/c mice): protection equivalent to Dexamethasone
TGF-beta levels (db/db mice; eight-week old diabetic db/db mice, 0.6 mg/kg SP16 biweekly for 12 weeks, pooled serum): increased
serum CRP levels (db/db mice; eight-week old diabetic db/db mice, 0.6 mg/kg SP16 biweekly for 12 weeks, pooled serum, vs vehicle): lowered
C-peptide levels (db/db mice; five-week old db/db mice, 0.6 mg/kg SP16 twice a week, pooled serum): increased
Non-fasted blood glucose (db/db mice; five-week old db/db mice, vs vehicle): significantly lowered
TLR-2 signaling induction (TLR-2; indicated concentrations of peptide for 24 hours, triplicate (FIG. 11)): inducing TLR-2 signaling in a dose dependent manner
TLR-4 signaling activation (TLR-4): not TLR-4 signaling
MMP1 secretion [1]: lowered MMP1 secretion
LPS-induced NFκB activation (THP1 cells): lowers
Percent inhibition (111 human receptors; Receptor class Brain/gut peptides, 15 receptors tested): Insignificant
Percent inhibition (111 human receptors; Receptor class Cell-Based, Functional, 1 receptor tested): Insignificant
Percent inhibition (111 human receptors; Receptor class Enzymes, 20 receptors tested): Insignificant
Percent inhibition (111 human receptors; Receptor class Enzymes, Kinases, 11 receptors tested): Insignificant
Percent inhibition (111 human receptors; Receptor class Growth factors & hormones, 2 receptors tested): Insignificant
Percent inhibition (111 human receptors; Receptor class Ion Channels, 8 receptors tested): Insignificant
Percent inhibition (111 human receptors; Receptor class Neurotransmitter Related, 47 receptors tested): Insignificant
Percent inhibition (111 human receptors; Receptor class Second Messengers, 3 receptors tested): Insignificant
Percent inhibition (111 human receptors; Receptor class Steroids, 4 receptors tested): Insignificant

Results, then the compound that gave them:

impact on TLR-2 signaling (alanine scan) (TLR-2): retain the ability to stimulate TLR-2
Compound: SP52: SP16 with one of residues 1-3 individually substituted with alanine (AKFNKPFVFLMIEQNTK)

impact on TLR-2 signaling (alanine scan) (TLR-2): retain the ability to stimulate TLR-2
Compound: SP53: SP16 with one of residues 1-3 individually substituted with alanine (VAFNKPFVFLMIEQNTK)

impact on TLR-2 signaling (alanine scan) (TLR-2): retain the ability to stimulate TLR-2
Compound: SP54: SP16 with one of residues 1-3 individually substituted with alanine (VKANKPFVFLMIEQNTK)
